Test results published in patent US6903130B1, “Pyrrolidineacetamide derivative alone or in combination for treatment of cns disorders” (UCB S.A., priority 1999, dated 2005).

Test: Plasma and brain levels after oral dosing in sound-sensitive mice
Conditions: alone or in combination with levetiracetam
Protocol: Male genetically sound-sensitive mice (17-30 g; N=10), derived from a DBA strain originally selected by Dr Lehmann of the Laboratory of Acoustic Physiology (Paris) and bred in the UCB Pharma Sector husbandry unit since 1978, were submitted to the induction of audiogenic seizures. Levetiracetam (5.4 mg/kg) and sodium valproate (166.2 mg/kg) were administered orally, alone or in combination, 60 minutes before the induction of audiogenic seizures. For testing audiogenic seizure, the mice were placed in the cages, one mouse per cage, in the sound-attenuated chamber. After a period of habituation of 30 seconds, the acoustic stimulus (90 dB, 10-20 kHz) was delivered for 30 seconds via the loud speakers. During this interval, the mice were observed and the presence of the 3 phases of the seizure activity, namely wild running, clonic and tonic convulsions, was recorded.
In all animals, blood samples were collected immediately after the seizure test (I h after dosing) by cardiac puncture under light carbon dioxide anesthesia, into heparinised microtubes. […] Levetiracetam was measured in plasma and brain samples by validated gas chromatography assay with mass detection. With sodium valproate, fluorescence polarization immunoassays were used.
The mean value plus standard deviation was calculated for plasma and brain concentrations of valproate and levetiracetam, and for the brain/plasma ratio. […]

For `CN1C(=O)CN=C(c2ccccc2)c2cc(Cl)ccc21` [diazepam, reference compound], the “plasma concentrations and brain/plasma ratio alone vs in combination with levetiracetam (in words)” value was “unchanged”.
